Measurements reported in PubChem BioAssay AID1671195 (Yale University, 2021)

Purpose: 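Regulators of LDL receptor activity judged by labelled LDL uptake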 (primary screen)
Cells: human Huh7 hepatoma cells
Reagents: siRNA pool against human genes, 18 nM
Time to read-out: about 2 to 2.5 days of knockdown, then 8 h LDL uptake
Challenge: DiI-labelled LDL at 30 µg/ml for 8 h, in lipoprotein-deficient serum medium
Measured: 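Fluorescent LDL signal imaged in cells, scaled to the plate median, robust z-score for each replicate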
Direction: robust z-score: higher = more LDL uptake after knockdown
Hit rule: 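Active when two or more replicates show a robust z-score above 2 or below -2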
The whole screen tested about 22,000 reagents; this is a part drawn at random. About 1,510 of all reagents (6.9%) count as active. 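Active includes knockdowns raising or lowering LDL uptake; positive z-scores mean more uptake, negative mean less.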

| target | robust z-score, replicate 1 | robust z-score, replicate 2 | robust z-score, replicate 3 | activity call |
| --- | --- | --- | --- | --- |
| HTR5A | 3.09 | 1.45 | 2.28 | active |
| CD248 | 0.262 | 1.24 | 1.09 | inactive |
| SNRPC | -0.321 | 1.25 | 0.163 | inactive |
| LOC392314 (retired record) | -0.397 | 0.0656 | 0.0448 | inactive |
| TPT1P4 | -0.165 | -0.0685 | -0.283 | inactive |
| GORASP2 | 0.122 | 0.624 | -1.05 | inactive |
| LOC387821 (retired record) | 0.261 | 0.272 | 0.199 | inactive |
| LRRC24 | -0.221 | -0.374 | -0.897 | inactive |
| REEP1 | -0.336 | -0.594 | -0.529 | inactive |
| MAP2 | -0.987 | -0.273 | -0.734 | inactive |
| DUSP11 | 0.885 | 0.354 | 0.256 | inactive |
| GPHA2 | 0.0369 | 0.0281 | 0.356 | inactive |
| ANAPC4 | 2.74 | 1.46 | 2.63 | active |
| LOC391764 (retired record) | 0.173 | 0.161 | 0.133 | inactive |
| NR2E1 | -0.43 | 0.622 | -0.521 | inactive |
| MAIP1 | 0.353 | 0.129 | 0.0946 | inactive |
| EPAS1 | -0.541 | 0.199 | 0.0705 | inactive |
| MAP3K10 | 0.0941 | 1.38 | 0.00292 | inactive |
| ATP8A2 | 0.0238 | -0.139 | -0.123 | inactive |
| LOC440974 (retired record) | -0.253 | -0.371 | -0.49 | inactive |
| PEAR1 | -1.73 | -2.14 | -1.88 | inactive |
| RPGRIP1 | 1.06 | 0.0209 | 0.0149 | inactive |
| LYRM2 | 2.04 | 1.54 | 0.24 | inactive |
| UXT | -0.822 | -1.07 | -1.95 | inactive |
| DENND6A | -0.217 | -0.244 | 0.171 | inactive |
| MEAK7 | -1.48 | -2 | -2.39 | active |
| OFD1 | -0.266 | 0.314 | 0.207 | inactive |
| IRAK4 | 0.131 | -0.439 | -0.876 | inactive |
| ZNF675 | -0.0638 | -0.0229 | 0.458 | inactive |
| VMAC | 0.8 | 0.262 | 0.847 | inactive |
| PPIC | -0.705 | -0.289 | -0.48 | inactive |
| LINC02372 | 0.449 | 0.45 | 0.0814 | inactive |
| DTX3 | -0.0179 | 0.267 | 0.0543 | inactive |
| C6 | 0.321 | -0.868 | 0.108 | inactive |
| ICMT | -1.29 | -1.34 | -1.79 | inactive |
| B3GNT7 | 0.578 | 2.24 | 2.09 | active |
| P4HA2 | -0.00728 | 1.67 | 0.348 | inactive |
| ATG3 | 0.734 | 0.457 | 0.99 | inactive |
| OR1D2 | 0.663 | 0.489 | 0.225 | inactive |
| GFPT2 | 0.544 | -0.0261 | 0.034 | inactive |
| ZKSCAN1 | -0.678 | 0.492 | -1.09 | inactive |
| SLC2A1 | -0.966 | -0.991 | -0.981 | inactive |
| NCAPD2 | -0.657 | 0.346 | 0.238 | inactive |
| TPBGL | -0.734 | -0.595 | -0.119 | inactive |
| FAT1 | -1.35 | -1.43 | -1.05 | inactive |
| LRTM3 | -0.13 | -0.63 | 0.193 | inactive |
| CCL22 | -1.11 | -0.595 | -0.473 | inactive |
| CFHR4 | -0.735 | -0.688 | -0.308 | inactive |
| OR4C16 | 0.384 | 0.473 | 0.913 | inactive |
| HTR1F | -0.921 | -1.21 | -1.02 | inactive |
| GALR2 | -0.575 | 0.407 | -0.437 | inactive |
| TYSND1 | -0.422 | -0.706 | -0.292 | inactive |
| CPEB1 | -0.94 | -1.5 | -1.53 | inactive |
| MAB21L1 | 2.17 | 2.23 | 2.45 | active |
| AMY1A | -1.71 | -1.35 | -1.29 | inactive |
| LRRC10 | -1.2 | -0.999 | -1.37 | inactive |
| MYOZ2 | -1.48 | -1.64 | -0.858 | inactive |
| LOC441030 (retired record) | 1.03 | 0.995 | 1.37 | inactive |
| CBX5 | -0.891 | -1 | -1.49 | inactive |
| SGPP1 | -1.07 | -0.841 | -0.74 | inactive |
| PRPF8 | -0.753 | -0.943 | -0.923 | inactive |
| ZBTB33 | -0.179 | -0.196 | 0.188 | inactive |
| SLC3A2 | -1.03 | -1 | -0.455 | inactive |
| LOC440203 (retired record) | 1.86 | 1.41 | 1.62 | inactive |
| ZNF473 | -0.169 | -0.0123 | 0.374 | inactive |
| AMELX | -0.361 | -1.76 | -1.36 | inactive |
| LMF1 | -0.865 | -0.715 | -0.574 | inactive |
| HSPA9 | 0.289 | 0.304 | 0.71 | inactive |
| MAP2K1 | 1.25 | -0.154 | -0.614 | inactive |
| LMBR1 | -0.381 | -0.318 | -0.592 | inactive |
| RNF135 | 0.291 | 2.49 | 1.77 | inactive |
| RPL36P5 | 0.738 | 0.851 | 1.29 | inactive |
| LOC442731 (retired record) | 0.921 | 1.56 | 0.549 | inactive |
| LRRC8D | -0.399 | -0.043 | -0.52 | inactive |
| STX10 | -0.571 | -0.259 | -0.43 | inactive |
| LIPT2 | -0.541 | -0.259 | -0.265 | inactive |
| IFNA8 | 0.44 | -0.219 | 1.07 | inactive |
| FAM228B | -1.13 | -1.28 | -1.15 | inactive |
| FGR | -0.784 | -0.288 | -0.325 | inactive |
| LOC389687 (retired record) | -1.23 | -0.877 | -1.35 | inactive |
| OGFRP1 | -0.0403 | -0.462 | -0.39 | inactive |
| LOC142937 (retired record) | -0.0172 | -0.944 | -0.116 | inactive |
| ARHGEF6 | -0.629 | -0.57 | -0.934 | inactive |
| PPAN | -0.0561 | -1.11 | -0.379 | inactive |
| FAM225A | -0.146 | 0.0671 | -0.117 | inactive |
| CTDSPL | -1.39 | -1.52 | -1.62 | inactive |
| SCFD2 | 0.347 | 0.626 | 0.905 | inactive |

Called active, among the entries above:
| target | robust z-score, replicate 1 | robust z-score, replicate 2 | robust z-score, replicate 3 | activity call |
| --- | --- | --- | --- | --- |
| HTR5A | 3.09 | 1.45 | 2.28 | active |
| ANAPC4 | 2.74 | 1.46 | 2.63 | active |
| MEAK7 | -1.48 | -2 | -2.39 | active |
| B3GNT7 | 0.578 | 2.24 | 2.09 | active |
| MAB21L1 | 2.17 | 2.23 | 2.45 | active |
